# Data from PubChem BioAssay AID248 (DTP/NCI, 2004).
# The list is a part of this screen's results and no random one: it is rich in T/C values a quarter to a half above the control, in often repeated tests (any T/C) and in doses without a T/C. Further doses and runs are listed elsewhere. T/C: endpoint of the treated group in % of that of the vehicle group. Some doses have a count of surviving animals in place of a T/C: the source holds a T/C of zero for them, seemingly a mark for toxic or unscored doses. Some survivor counts are full or nearly so, which does not show that the dose was tolerated: the source hardly ever lists a survival T/C far under the control, and the zero likely stands for such cases as well. Counts of survivors are from the toxicity check (mostly the fifth day) where no day follows; animals may have died later. Schedule codes are those of the source, taken here to give the interval after Q, in days (D) or hours (H), and the number of doses after X. Some schedules carry Z or #; the key to these is not given. Where survival is the endpoint, this PubChem deposit counts one and a half times the control or more as active, and values a quarter to a half above the control carry no call in these data; other NCI protocols may use other cut-offs. Some T/C values are followed by the survivors on the day toxicity was checked, most often the fifth; without a count, all were alive then.
# Test system: L1210 leukemia ip in BDF1 mice, survival T/C
# Experiment: NCI In Vivo Anticancer Drug Screen. Data for tumor model L1210 Leukemia (intraperitoneal) in B6D2F1 (BDF1) mice
# Settings: higher T/C = longer survival
# [1] = T/C endpoint: mean survival time, dose: 300.0 mg/kg/injection, schedule: Q01DX001 (ip), vehicle: saline
# [2] = T/C endpoint: mean survival time, dose: 400.0 mg/kg/injection, schedule: Q01DX001 (ip), vehicle: Klucel (hydroxypropylcellulose) (HPC)
# [3] = T/C endpoint: mean survival time, dose: 400.0 mg/kg/injection, schedule: Q01DX009 (ip), vehicle: Klucel (hydroxypropylcellulose) (HPC)
# [4] = T/C endpoint: mean survival time, dose: 300.0 mg/kg/injection, schedule: Q01DX001 (ip), vehicle: carboxymethylcellulose (CMC)
# [5] = T/C endpoint: mean survival time, dose: 400.0 mg/kg/injection, schedule: Q01DX001 (ip), vehicle: saline
# [6] = T/C endpoint: mean survival time, dose: 25.0 mg/kg/injection, schedule: Q04DX003 (ip), vehicle: saline with Tween-80
# [7] = T/C endpoint: mean survival time, dose: 100.0 mg/kg/injection, schedule: Q04DX003 (ip), vehicle: saline with Tween-80
# [8] = T/C endpoint: mean survival time, dose: 200.0 mg/kg/injection, schedule: Q04DX003 (ip), vehicle: saline with Tween-80
# [9] = T/C endpoint: mean survival time, dose: 400.0 mg/kg/injection, schedule: Q04DX003 (ip), vehicle: saline with Tween-80
# [10] = T/C endpoint: mean survival time, dose: 200.0 mg/kg/injection, schedule: Q01DX009 (ip), vehicle: saline with Tween-80
# [11] = T/C endpoint: mean survival time, dose: 400.0 mg/kg/injection, schedule: Q01DX009 (ip), vehicle: saline with Tween-80
# [12] = T/C endpoint: mean survival time, dose: 100.0 mg/kg/injection, schedule: Q01DX009 (ip), vehicle: saline with Tween-80
structure (smiles),measurement,setting,value
N#C[S-].N#C[S-].N#C[S-].N#C[S-].[Co],survivor count,"T/C endpoint: mean survival time, dose: 40.0 mg/kg/injection, schedule: Q01DX001 (ip), vehicle: saline",0 of 6
same,survivor count,"T/C endpoint: mean survival time, dose: 80.0 mg/kg/injection, schedule: Q01DX001 (ip), vehicle: saline",0 of 6
Cc1ccc(C)c(CCl)c1,survivor count,[1],3 of 6
Cc1c(N)nc([C@H](CC(N)=O)NC[C@H](N)C(N)=O)nc1C(=O)N[C@H](C(=O)N[C@H](C)[C@@H](O)[C@H](C)C(=O)N[C@H](C(=O)NCCc1nc(-c2nc(C(=O)NCCC[S+](C)C)cs2)cs1)[C@@H](C)O)C(OC1OC(CO)C(O)C(O)C1OC1OC(CO)C(O)C(OC(N)=O)C1O)c1cnc[nH]1 (stereo partly specified),survivor count,"T/C endpoint: mean survival time, dose: 250.0 mg/kg/injection, schedule: Q01DX009 (ip), vehicle: saline",5 of 6
same,T/C,"T/C endpoint: median survival time, dose: 16.0 mg/kg/injection, schedule: Q01DX009 (ip), vehicle: saline",125 % of control
same,survivor count,"T/C endpoint: median survival time, dose: 32.0 mg/kg/injection, schedule: Q01DX009 (ip), vehicle: saline",5 of 6
CON(C)S(=O)(=O)c1ccc([N+](=O)[O-])cc1,survivor count,[2],1 of 6
C=CCN(CC=C)C(=O)Nc1ccc(C(=O)N/N=C/c2cccc(OC)c2OC)cc1,survivor count,[3],3 of 3
CCC(C)C(NN)C(=O)O (stereo unspecified),T/C,"T/C endpoint: mean survival time, dose: 150.0 mg/kg/injection, schedule: Q01DX015 (ip), vehicle: carboxymethylcellulose (CMC)",128 % of control [5 of 6 alive]
same,survivor count,"T/C endpoint: mean survival time, dose: 250.0 mg/kg/injection, schedule: Q01DX015 (ip), vehicle: carboxymethylcellulose (CMC)",3 of 6
N=C(N)SC1c2ccccc2-c2ccc(Br)cc21 (stereo unspecified),survivor count,[4],0 of 6
CCOC(=O)C(C(=O)O)(C(c1ccccc1)c1ccccc1)C(c1ccccc1)c1ccccc1,survivor count,"T/C endpoint: mean survival time, dose: 150.0 mg/kg/injection, schedule: Q01DX001 (ip), vehicle: carboxymethylcellulose (CMC)",0 of 6
same,survivor count,[4],0 of 6
NC(=O)Cc1ccc(O)cc1,T/C,"T/C endpoint: mean survival time, dose: 100.0 mg/kg/injection, schedule: Q04DX002 (ip), vehicle: saline",139 % of control
CC(=O)NCc1cccc[n+]1[O-],survivor count,"T/C endpoint: mean survival time, dose: 200.0 mg/kg/injection, schedule: Q04DX002 (ip), vehicle: saline",1 of 3
same,survivor count,"T/C endpoint: mean survival time, dose: 400.0 mg/kg/injection, schedule: Q04DX002 (ip), vehicle: saline",0 of 3
C/C(=N/NC(N)=S)c1ccc(Cl)cc1,survivor count,"T/C endpoint: mean survival time, dose: 20.0 mg/kg/injection, schedule: Q01DX001 (ip), vehicle: other",0 of 4
same,survivor count,"T/C endpoint: mean survival time, dose: 40.0 mg/kg/injection, schedule: Q01DX001 (ip), vehicle: other",0 of 4
same,survivor count,"T/C endpoint: mean survival time, dose: 80.0 mg/kg/injection, schedule: Q01DX001 (ip), vehicle: other",0 of 4
CCOC(=O)c1c(C)c(-c2ccccc2F)nc2ccccc12,survivor count,[5],3 of 6
COc1nn(C)c(=O)c2cccnc12,survivor count,[1],2 of 6
CC(=[N-])CC(C)=O.CC(=[N-])CC(C)=O.[Cu+2],survivor count,[6],6 of 6
same,survivor count,[7],1 of 6
same,survivor count,[8],0 of 6
same,survivor count,[9],0 of 6
NC(CSSCC(N)=NCC12CC3CC(CC(C3)C1)C2)=NCC12CC3CC(CC(C3)C1)C2,survivor count,"T/C endpoint: mean survival time, dose: 400.0 mg/kg/injection, schedule: Q04DX002 (ip), vehicle: saline with Tween-80",0 of 3
CN(/N=C/c1ccccc1)C(=N)N,survivor count,"T/C endpoint: mean survival time, dose: 125.0 mg/kg/injection, schedule: Q04DX003 (ip), vehicle: saline",1 of 6
same,survivor count,"T/C endpoint: mean survival time, dose: 150.0 mg/kg/injection, schedule: Q01DX001 (ip), vehicle: saline",3 of 6
same,survivor count,"T/C endpoint: mean survival time, dose: 250.0 mg/kg/injection, schedule: Q04DX003 (ip), vehicle: saline",3 of 6
same,survivor count,[1],0 of 6
CCCCCC1SC1CC1SC1CCCCCCCC(=O)N1CCOCC1 (stereo unspecified),survivor count,[10],3 of 6
same,survivor count,[11],2 of 6
C[N+](C)(CCc1ccccc1)CC(O)COc1ccccc1 (stereo unspecified),survivor count,"T/C endpoint: mean survival time, dose: 37.5 mg/kg/injection, schedule: Q04DX003 (ip), vehicle: Klucel (hydroxypropylcellulose) (HPC)",3 of 6
same,survivor count,"T/C endpoint: mean survival time, dose: 75.0 mg/kg/injection, schedule: Q04DX003 (ip), vehicle: Klucel (hydroxypropylcellulose) (HPC)",0 of 6
NC(N)=N/N=C(/c1ccccc1)c1ccc(O)cc1O,survivor count,"T/C endpoint: mean survival time, dose: 480.0 mg/kg/injection, schedule: Q01DX Z (ip), vehicle: saline",0 of 6
CC(C)c1ccccc1SCC1=NCCN1,survivor count,"T/C endpoint: mean survival time, dose: 40.0 mg/kg/injection, schedule: Q04DX003 (ip), vehicle: Klucel (hydroxypropylcellulose) (HPC)",0 of 6
same,survivor count,"T/C endpoint: mean survival time, dose: 100.0 mg/kg/injection, schedule: Q04DX003 (ip), vehicle: Klucel (hydroxypropylcellulose) (HPC)",0 of 6
same,survivor count,"T/C endpoint: mean survival time, dose: 200.0 mg/kg/injection, schedule: Q04DX003 (ip), vehicle: Klucel (hydroxypropylcellulose) (HPC)",0 of 6
same,survivor count,"T/C endpoint: mean survival time, dose: 400.0 mg/kg/injection, schedule: Q04DX003 (ip), vehicle: Klucel (hydroxypropylcellulose) (HPC)",0 of 6
CC(C)(CN=Cc1ccccc1[O-])N=Cc1ccccc1[O-].[O]=[V],survivor count,[12],1 of 6
same,survivor count,[10],0 of 6
CCC1(O)CC(OC2CC(N(C)C)C(OC3CC(O)C(OC4CC(O)C(O)C(C)O4)C(C)O3)C(C)O2)c2c(cc3c(c2O)C(=O)c2c(O)ccc(O)c2C3=O)C1C(=O)OC (stereo unspecified),T/C,"T/C endpoint: mean survival time, dose: 25.6 mg/kg/injection, schedule: Q01DX001 (ip), vehicle: saline",131 % of control
same,T/C,"T/C endpoint: mean survival time, dose: 51.2 mg/kg/injection, schedule: Q01DX001 (ip), vehicle: saline",141 % of control
CC(C)Cc1ccc(C(C)C(=O)O)cc1 (stereo unspecified),survivor count,[5],3 of 3
C=CC[P+](CCCC)(CCCC)CCCC,survivor count,[6],0 of 6
same,survivor count,"T/C endpoint: mean survival time, dose: 25.0 mg/kg/injection, schedule: Q04DX003 (ip), vehicle: saline",0 of 6
same,survivor count,"T/C endpoint: mean survival time, dose: 50.0 mg/kg/injection, schedule: Q04DX003 (ip), vehicle: saline with Tween-80",0 of 6
same,survivor count,[7],0 of 6
same,survivor count,[8],0 of 6
same,survivor count,[9],0 of 6
CC1(C)N=C(N)N=C(N)N1CCc1ccccc1,survivor count,"T/C endpoint: mean survival time, dose: 100.0 mg/kg/injection, schedule: Q01DX001 (ip), vehicle: saline with Tween-80",0 of 6
COc1cc(OC)c(/C=C/c2c3ccccc3cc[n+]2C)c(OC)c1,survivor count,"T/C endpoint: mean survival time, dose: 3.13 mg/kg/injection, schedule: Q01DX009 (ip), vehicle: saline with Tween-80",0 of 6
same,survivor count,"T/C endpoint: mean survival time, dose: 6.25 mg/kg/injection, schedule: Q01DX009 (ip), vehicle: saline with Tween-80",0 of 6
same,survivor count,[12],0 of 6
same,survivor count,[10],0 of 6
same,survivor count,[11],0 of 6
CN(Cc1cnc2cc(N)nc(N)c2n1)c1ccc(C(=O)O)cc1,survivor count,"T/C endpoint: mean survival time, dose: 200.0 mg/kg/injection, schedule: Q01DX009 (ip), vehicle: other",6 of 6
O=C1C=CC(=O)N1c1ccc([N+](=O)[O-])cc1[N+](=O)[O-],survivor count,"T/C endpoint: mean survival time, dose: 200.0 mg/kg/injection, schedule: Q01DX009 (ip), vehicle: Klucel (hydroxypropylcellulose) (HPC)",0 of 6
same,survivor count,[3],0 of 6
CC12CCC3C(CCC4=CC(=O)CCC43C)C1CCCN2 (stereo unspecified),survivor count,"T/C endpoint: mean survival time, dose: 300.0 mg/kg/injection, schedule: Q01DX001 (sc), vehicle: steroid suspending solution",1 of 6
CN(Cc1cnc2nc(N)nc(N)c2n1)c1ccc(C(=O)NC(CCC(=O)O)C(=O)O)cc1C(F)(F)F (stereo unspecified),T/C,"T/C endpoint: mean survival time, dose: 1.25 mg/kg/injection, schedule: Q01DX009 (ip), vehicle: sodium bicarbonate",126 % of control
same,T/C,"T/C endpoint: mean survival time, dose: 2.5 mg/kg/injection, schedule: Q01DX009 (ip), vehicle: sodium bicarbonate",136 % of control
CCC1(CC)COC(C)(C(=O)O)OC1,survivor count,[11],0 of 6
COc1ccc2[nH]c(=O)ccc2c1,survivor count,[2],2 of 6
O=C(O)c1c2ccccc2nc2ccccc12,survivor count,"T/C endpoint: mean survival time, dose: 200.0 mg/kg/injection, schedule: Q01DX001 (ip), vehicle: saline",0 of 4
same,survivor count,[5],0 of 4
